In the assay the target is T1, GFP-CDCA3 (UniProt Q99618).
T1 sequence: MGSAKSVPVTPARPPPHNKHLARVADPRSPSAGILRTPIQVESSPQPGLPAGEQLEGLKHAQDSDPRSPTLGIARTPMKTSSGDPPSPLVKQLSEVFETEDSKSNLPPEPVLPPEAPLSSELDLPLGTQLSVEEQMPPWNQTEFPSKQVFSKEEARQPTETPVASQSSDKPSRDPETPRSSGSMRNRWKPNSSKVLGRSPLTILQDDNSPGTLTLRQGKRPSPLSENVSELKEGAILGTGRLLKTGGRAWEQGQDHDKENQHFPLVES
The assay is described as follows: affinity purification with mass spectrometry; GFP-CDCA3 plasmid transfected into 293T cells, Co-IP, then LC-MS of the precipitate (trypsin digest, ThermoFisher Fusion, PEAKS Online 11).

The chains behind the UniProt entries cited, without tags or fusion partners.
UniProt Q13263: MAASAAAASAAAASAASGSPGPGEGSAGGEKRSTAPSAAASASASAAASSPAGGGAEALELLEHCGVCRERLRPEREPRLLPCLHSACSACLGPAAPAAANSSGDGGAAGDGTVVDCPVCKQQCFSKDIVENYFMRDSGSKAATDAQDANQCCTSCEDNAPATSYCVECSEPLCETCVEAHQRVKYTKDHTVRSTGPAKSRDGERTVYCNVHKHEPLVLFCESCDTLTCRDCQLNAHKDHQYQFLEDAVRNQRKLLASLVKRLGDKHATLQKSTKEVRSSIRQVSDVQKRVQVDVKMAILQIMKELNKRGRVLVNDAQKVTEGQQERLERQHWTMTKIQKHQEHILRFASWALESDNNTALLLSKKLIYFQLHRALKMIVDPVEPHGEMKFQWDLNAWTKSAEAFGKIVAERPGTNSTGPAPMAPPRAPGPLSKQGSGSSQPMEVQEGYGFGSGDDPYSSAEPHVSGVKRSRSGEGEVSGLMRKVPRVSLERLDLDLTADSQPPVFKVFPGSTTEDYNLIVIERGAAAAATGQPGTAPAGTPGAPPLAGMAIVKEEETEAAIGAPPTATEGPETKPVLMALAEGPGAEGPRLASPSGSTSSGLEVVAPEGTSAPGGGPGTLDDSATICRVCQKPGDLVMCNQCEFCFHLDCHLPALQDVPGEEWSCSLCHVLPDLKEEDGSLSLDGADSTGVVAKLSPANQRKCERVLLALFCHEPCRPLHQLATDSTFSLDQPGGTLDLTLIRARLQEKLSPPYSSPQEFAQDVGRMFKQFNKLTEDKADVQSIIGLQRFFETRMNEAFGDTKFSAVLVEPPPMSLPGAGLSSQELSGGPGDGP

No constants are given. Whether binding was seen depends on the method and setting. In cells and extracts the contact can be indirect. Here binding means that the protein was enriched with, or labelled near, the bait; the list need not be complete. Tags and fused reporters may be left off the sequences shown.

As for “Tripartite Motif Containing 28 (TRIM28), endogenous (from UniProt Q13263 1-835)”, the binding result is “binds”.

Source of the values: publication PMC11841255.
